The record followed here is publication PMC7819943, “Rice protein-binding microarrays: a tool to detect cis-acting elements near promoter regions in rice”.

Sequences of proteins named here, by UniProt entry; tags and fusion partners are left off.
UniProt Q0JBA9, entry or part of it: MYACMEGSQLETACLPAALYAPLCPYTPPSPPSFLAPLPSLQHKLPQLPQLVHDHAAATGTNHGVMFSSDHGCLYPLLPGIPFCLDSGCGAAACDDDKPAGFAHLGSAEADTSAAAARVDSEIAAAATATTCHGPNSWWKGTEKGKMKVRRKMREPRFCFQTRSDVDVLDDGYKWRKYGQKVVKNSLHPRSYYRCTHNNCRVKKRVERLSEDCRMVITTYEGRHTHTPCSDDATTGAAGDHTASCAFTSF

The list shows a part of the results.

The assay addresses OsWRKY34 (Oryza sativa, UniProt Q0JBA9 1-250). Description: protein-binding microarray (RPBM); PBS, 2% BSA, 51.3 ng/ul salmon testes DNA, 50 uM zinc acetate, 200 nM TF, 25 C, 1 h; high values mean tight binding. Particulars: protein: recombinant; tags: N-terminal polyhistidine and DsRed monomer fusion (pET32a); label: CyDye5-dUTP incorporated in the synthesized complementary strand; 3' TTTTT single-stranded linker to array surface; dsDNA, one strand shown. A digest of the protocol:
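Transcription factors were each fused at the N-terminus to a polyhistidine tag plus DsRed and expressed in E. coli BL21-CodonPlus before Ni–NTA purification. Binding to a double-stranded custom Agilent array was carried out with 200 nM protein at 25 °C for 1 h in PBS, 2% BSA, salmon testes DNA and 50 µM zinc acetate. The binding signal is per-feature fluorescence intensity, in arbitrary units, on an Axon 4000B scanner.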
With “ACCAACTGTTTCACCATGCACCTACACTGTTGTTCTTTTACGGAGTCACCTAGTGCAG”, the binding signal is 9720 fluorescence intensity (a.u.).
In the case of “GTAGAGAAGAGAGATGATGTATTTATTAATGGCCCACTTTCGGAGTCACCTAGTGCAG”, the binding signal is 8910 fluorescence intensity (a.u.).
For “TGTATAATGTTTGGTTGTGTATATCCATCTATGAACGGATCGGAGTCACCTAGTGCAG”, the binding signal is 8400 fluorescence intensity (a.u.).
As for “GGATATTTCGCCATAATTATAGCCAATCCGTTTCTCTTTCCGGAGTCACCTAGTGCAG”, the figure is 10300 fluorescence intensity (a.u.).
For “TATAAAGTTACGGTTCCATCAAGGTCATATATGCTTGACTCGGAGTCACCTAGTGCAG” the value was 9520 fluorescence intensity (a.u.).
For “GAGATACTTGACTATTTTCTGTGTACTCCCTTCGTTTCATCGGAGTCACCTAGTGCAG” the value was 9680 fluorescence intensity (a.u.); for “TGCTTCTGCCTCATCCCTTCTTGTCGTCCACGCCGCCATCCGGAGTCACCTAGTGCAG”, 12500 fluorescence intensity (a.u.); for “AACCACGCTGATCCCAAACCCCATTCCGCCTCTCTCGGCCCGGAGTCACCTAGTGCAG”, 8530 fluorescence intensity (a.u.).
Turning to “CTTCCCTGCTCTGCTCATCTCCTCTGCTCCAGTTCAGAAACGGAGTCACCTAGTGCAG”, the binding signal is 10300 fluorescence intensity (a.u.).
For “CCCACCACCGACCGCCGCAGAGAAAAAGCCCATGTCGTCACGGAGTCACCTAGTGCAG” the value was 8420 fluorescence intensity (a.u.); for “GTCCAGGCTTAATTCAATCATTATATGTACATATCTTTGTCGGAGTCACCTAGTGCAG”, 8140 fluorescence intensity (a.u.); for “ATCTAGGATACCGTTGACTTTTCGTACTAACATTTGACGTCGGAGTCACCTAGTGCAG”, 32800 fluorescence intensity (a.u.).
“CTTCTTCGCCAGATCCCTTGGTCTTCTCGTAGATCTCTGACGGAGTCACCTAGTGCAG”: the binding signal is 10700 fluorescence intensity (a.u.).
As for “CAGCTCGGATTCGTCCCACACCGATGAAATTACCGCCCATCGGAGTCACCTAGTGCAG”, the figure is 9040 fluorescence intensity (a.u.).
For “CAGCAGTACACATCATGTACTACTTACCGATTTCATCAGCCGGAGTCACCTAGTGCAG” the value was 8510 fluorescence intensity (a.u.); for “GTGGGTCCCACGCTGAGTCAGCTGCCACGTCGGACAAAACCGGAGTCACCTAGTGCAG”, 8160 fluorescence intensity (a.u.).
As for “TAGTCCACCACTCACTCCAGCAGTCCACCTTAGCAAGCAACGGAGTCACCTAGTGCAG”, the binding signal was 8030 fluorescence intensity (a.u.).
“TCCTTAGCTTCCTTCTGTCGACTTGTCTATTCTTTTTTTCCGGAGTCACCTAGTGCAG”: the binding signal is 17700 fluorescence intensity (a.u.).
For “ATCTAGAGCGGTTGTTAGCGCAGTGGTAGTGTGTTATCTTCGGAGTCACCTAGTGCAG” the value was 8430 fluorescence intensity (a.u.); for “CTTTGCTTATCCCTTTTTAGTGGAGATTGTTGAGTATATCCGGAGTCACCTAGTGCAG”, 8930 fluorescence intensity (a.u.); for “TACTCCCTCCGTTTCAAATGACACCATTGACTTTTTAGCACGGAGTCACCTAGTGCAG”, 9430 fluorescence intensity (a.u.).
Take “CAATCGCTCTCATTAACTGGCACGCATAACGGTTGCTTCACGGAGTCACCTAGTGCAG”: the binding signal is 8360 fluorescence intensity (a.u.).
As for “CCAGACCACCACCACCACCACCACCCCACCCAGCTGGTGCCGGAGTCACCTAGTGCAG”, the figure is 8030 fluorescence intensity (a.u.); as for “GTACAGACCATATGTCCCGCGACCTCGAGTCCTCCTTTCCCGGAGTCACCTAGTGCAG”, 8980 fluorescence intensity (a.u.); as for “TGTGCTTCCCTCACTGCGCCACCACTCCACCACCTCCACCCGGAGTCACCTAGTGCAG”, 9410 fluorescence intensity (a.u.).
For “AATACCTATAAATACTTATCACGTCCGTCCCTAAATATAACGGAGTCACCTAGTGCAG”, the binding signal is 8300 fluorescence intensity (a.u.).
For “TATATTTTCCTTAGCTCAATAGTAGGATTTTTTTTTTCTGCGGAGTCACCTAGTGCAG” the value was 9520 fluorescence intensity (a.u.); for “TGAGCCTTGCTCGTCGGCGGCGAGGTGGGGTGGGGCGGGGCGGAGTCACCTAGTGCAG”, 20800 fluorescence intensity (a.u.).
As for “GTACTGTTTTAGCTTTATTCATGTTTAACGTTTCACCGTTCGGAGTCACCTAGTGCAG”, the figure is 9650 fluorescence intensity (a.u.); as for “TTTCTTGTAGTTGGCTCTTATTTTGGGGTTGGTCTTGCCTCGGAGTCACCTAGTGCAG”, 13900 fluorescence intensity (a.u.).
On to “CTCTACGGCCTGTTTGTTTCCATTTAAAATTTATTGTAATCGGAGTCACCTAGTGCAG”, for which the binding signal is 9780 fluorescence intensity (a.u.).
Regarding “ATTTTCATTTTCTTTTGATGTTTAGGTATTGCTACTATCGCGGAGTCACCTAGTGCAG”, the binding signal is 9700 fluorescence intensity (a.u.).
As for “AAATCCACCTCTCTGAATACGCCCGCCATCTTCCATCTCCCGGAGTCACCTAGTGCAG”, the figure is 13700 fluorescence intensity (a.u.); as for “GGGGTGGGGTTGGCGGCGACGCGGGCGAGGCCGAGGAGGACGGAGTCACCTAGTGCAG”, 13400 fluorescence intensity (a.u.); as for “CTGCTGTCTTCCTCAATCCTGGGTTCAGATGTTTCACCTCCGGAGTCACCTAGTGCAG”, 11200 fluorescence intensity (a.u.).
For “GTTGCAGGGATTATGGTTGACTAGAAACATGTTTGAGTGGCGGAGTCACCTAGTGCAG” the value was 9640 fluorescence intensity (a.u.); for “TTTTTCTCTCTTGGTCCACGTGCTGATGTTTTTTCTCCATCGGAGTCACCTAGTGCAG”, 14400 fluorescence intensity (a.u.); for “ACGTCGTGCTGTTTTTTCTCTGAATTTTGTTCAAATTTATCGGAGTCACCTAGTGCAG”, 15700 fluorescence intensity (a.u.).
For “CCGCGGTTCATCATTCTTTGGCCTCTCCGAAACCTAGATCCGGAGTCACCTAGTGCAG” the value was 8860 fluorescence intensity (a.u.); for “CTGCATCTAATTACGTGATAATCACTTTTTCCCTCGTTTTCGGAGTCACCTAGTGCAG”, 10200 fluorescence intensity (a.u.); for “TATAGTCGTCTGGTTTGTCTTTGTTAAAATTGTACAATTTCGGAGTCACCTAGTGCAG”, 8170 fluorescence intensity (a.u.).
Take “AGTTTCTACAGTTGTAATGTATCAGTAGTCTCGACTTTCTCGGAGTCACCTAGTGCAG”: the binding signal was 13000 fluorescence intensity (a.u.).
For “CGCATCATTCACCGCATTTGCCAGTATCTCACCTGGCAATCGGAGTCACCTAGTGCAG” the value was 8660 fluorescence intensity (a.u.).
Regarding “CTCTTGCCCGTCCATTGCCCACCACCACCACCCTGCTCTCCGGAGTCACCTAGTGCAG”, the binding signal was 9860 fluorescence intensity (a.u.).
For “CACCAACCGATTTCGCAGCGCCAGCCCACTGATTCCTCACCGGAGTCACCTAGTGCAG” the value was 8090 fluorescence intensity (a.u.); for “GCCTAACCCTAACCCTAGCCGCCACCGCTCAACCGCCTCCCGGAGTCACCTAGTGCAG”, 8590 fluorescence intensity (a.u.).
As for “CCACTTCAGCTGGTTAACCTTGGCCTTCCTCGACATCTTCCGGAGTCACCTAGTGCAG”, the figure is 10500 fluorescence intensity (a.u.); as for “AACCAAACGCTAGAAATCGCTCGTCACACATCAGTCCCGGCGGAGTCACCTAGTGCAG”, 8150 fluorescence intensity (a.u.); as for “CCGGAATACCTGGCCAATTTTACTGTCCTTTCCAGCTTGACGGAGTCACCTAGTGCAG”, 8380 fluorescence intensity (a.u.).
For “TTAAAATAGCATTTACCCGTTCCAATGCATAGACTTTTTTCGGAGTCACCTAGTGCAG” the value was 8540 fluorescence intensity (a.u.).
For the sequence “CGTGTCGAGCTCTGTCTCCTCGTCTTCATCCGCCGCTTCACGGAGTCACCTAGTGCAG”, the binding signal is 18100 fluorescence intensity (a.u.).
For “GGGATGTAAAGTTTTGGCGTGTCATATCGGGTATTATATACGGAGTCACCTAGTGCAG” the value was 9690 fluorescence intensity (a.u.); for “AACGGTTCTTCTGGTCATTTCCAATTCGCCATCCGTCTGTCGGAGTCACCTAGTGCAG”, 8930 fluorescence intensity (a.u.).
For “TACTGTAATACCGTATGTATTTTTTTCTCATATATCTAGCCGGAGTCACCTAGTGCAG” the value was 8310 fluorescence intensity (a.u.).
